Consider one substance from doi:10.1101/2025.05.14.654074.

Protein sequences, listed by entry. Tags and fused reporters are not part of them. Lines headed by an entry give the natural chain unless they say otherwise; changes in a name come on top.
UniProt Q9CZD3: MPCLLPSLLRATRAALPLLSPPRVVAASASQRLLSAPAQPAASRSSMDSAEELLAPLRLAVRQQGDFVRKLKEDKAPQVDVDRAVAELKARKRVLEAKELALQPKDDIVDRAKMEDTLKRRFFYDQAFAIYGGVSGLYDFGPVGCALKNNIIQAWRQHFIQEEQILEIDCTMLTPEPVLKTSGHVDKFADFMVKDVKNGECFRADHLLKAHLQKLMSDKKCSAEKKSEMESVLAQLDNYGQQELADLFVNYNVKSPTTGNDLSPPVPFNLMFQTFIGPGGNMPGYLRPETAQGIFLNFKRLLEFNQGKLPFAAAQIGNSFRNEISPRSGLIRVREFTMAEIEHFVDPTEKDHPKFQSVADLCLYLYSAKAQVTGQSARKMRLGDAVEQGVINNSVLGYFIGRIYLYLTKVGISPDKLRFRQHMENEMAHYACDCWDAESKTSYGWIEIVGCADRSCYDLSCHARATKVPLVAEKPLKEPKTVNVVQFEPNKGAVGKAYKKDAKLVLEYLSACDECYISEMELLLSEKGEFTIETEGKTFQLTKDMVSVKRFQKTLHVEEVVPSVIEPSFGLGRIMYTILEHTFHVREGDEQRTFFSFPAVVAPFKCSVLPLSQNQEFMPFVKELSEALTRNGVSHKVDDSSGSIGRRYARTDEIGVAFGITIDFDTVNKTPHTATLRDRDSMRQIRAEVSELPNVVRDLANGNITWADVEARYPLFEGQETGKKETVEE

The target in this test is T1, Recombinant human Nrp1-Fc chimera protein (whole extracellular portion of human Nrp1, C-terminally Fc-tagged) (human) (UniProt O14786).
T1 sequence: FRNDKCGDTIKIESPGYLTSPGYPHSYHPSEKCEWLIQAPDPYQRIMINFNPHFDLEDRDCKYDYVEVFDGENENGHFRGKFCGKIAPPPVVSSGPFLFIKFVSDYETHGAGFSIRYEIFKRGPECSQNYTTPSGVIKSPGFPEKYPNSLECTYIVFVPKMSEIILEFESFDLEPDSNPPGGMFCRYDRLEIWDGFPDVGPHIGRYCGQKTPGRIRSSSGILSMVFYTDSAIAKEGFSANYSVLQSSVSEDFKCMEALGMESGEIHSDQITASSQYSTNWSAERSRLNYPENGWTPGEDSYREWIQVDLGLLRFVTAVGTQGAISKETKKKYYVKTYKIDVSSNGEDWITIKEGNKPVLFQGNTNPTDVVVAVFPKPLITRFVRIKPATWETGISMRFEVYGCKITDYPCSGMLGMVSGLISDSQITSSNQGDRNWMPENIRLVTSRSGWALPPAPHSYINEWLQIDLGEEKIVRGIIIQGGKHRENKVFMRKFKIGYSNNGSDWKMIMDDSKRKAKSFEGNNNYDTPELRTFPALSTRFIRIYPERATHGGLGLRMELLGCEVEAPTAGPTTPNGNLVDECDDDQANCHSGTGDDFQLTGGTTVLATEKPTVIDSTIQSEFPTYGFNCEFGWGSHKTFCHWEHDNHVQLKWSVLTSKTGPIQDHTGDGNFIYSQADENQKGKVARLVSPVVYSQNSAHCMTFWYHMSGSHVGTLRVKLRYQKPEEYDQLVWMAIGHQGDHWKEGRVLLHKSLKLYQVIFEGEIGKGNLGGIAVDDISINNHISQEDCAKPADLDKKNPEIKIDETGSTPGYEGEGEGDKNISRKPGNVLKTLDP
Nature of the test: pull-down.

Results are given in words; binding and its absence hold for the method and conditions named. Binding can be weak; no strength is given. Where a sequence is shown, tags or fusion partners need not be part of it.

With “recombinant mouse GlyRS^ΔWHEP (from UniProt Q9CZD3) (enzyme)”, the binding result is “binds”.
